Out of some 300,000 compounds screened, about 5,400 (1.8%) were called active. Inconclusive results, whose numbers are uncertain, are shown with a selection of clear calls. Calls come from the whole dose curve; tested in HEK293 cells. Potencies beside an inconclusive call are fits to weak or partial responses and may not hold up.
Experiment: qHTS for inhibitors of binding or entry into cells for Marburg Virus
Conditions: Marburg virus pseudotyped entry inhibition, cell reporter; activity change, negative = inhibition: at 37.8 µM (top of the series) unless noted
% is set by controls: 0 for no effect and ±100 for the full control effect; potency is the fitted concentration of half-maximal effect.

| SMILES | Potency | activity change, negative = inhibition |
| --- | --- | --- |
| CCCCn1c(C)c(C(=O)OCC)c2c(CN3CCOCC3)c(O)ccc21 | inconclusive: 16.4 µM [inhibitor, single point] | – |
| Nc1cc(S(=O)(=O)O)cc2ccc(S(=O)(=O)O)cc12 | – | inactive: -4.5% [at 46.1 µM] |
| COc1cccc(C(=O)CSc2nnc(-c3cc(OC)cc(OC)c3)o2)c1 | inconclusive: 20.6 µM [inhibitor, single point] | – |
| Cc1ccc(OCC(=O)Nc2cc(C)on2)c([N+](=O)[O-])n1 | inconclusive: 8.91 µM [activator, single point] | – |
| Cn1ccc2c(N3CCCCC3)cc3c(c21)C1CCC3O1 (stereo unspecified) | inconclusive: 0.0353 µM [inhibitor, full curve, poor fit] | – |
| O=C(Cc1ccccc1)Nc1nc(-c2cccs2)cs1 | inconclusive: 35.5 µM [inhibitor, single point] | – |
| COC(=O)C1=C(C)N(Cc2ccccc2)C(=O)/C1=C\c1ccco1 | inconclusive: 6.31 µM [inhibitor, partial curve, poor fit] | – |
| O=[N+]([O-])c1cc([N+](=O)[O-])c(N2CCCCCC2)cc1NCCO | inconclusive: 29.1 µM [inhibitor, single point] | – |
| Cc1cccc(C(=O)Oc2ccc(/C=N/NC(=O)Cc3ccc([N+](=O)[O-])cc3)cc2)c1 | – | inactive: 6.45% |
| COc1ccc(OC)c(NC(=O)CN2C(=O)NC3(CCOc4ccccc43)C2=O)c1 (stereo unspecified) | inconclusive: 17.8 µM [inhibitor, single point] | – |
| O=C(CN1C(=O)NC2(CCCC2)C1=O)NC(c1ccccc1)c1ccccc1 | inconclusive: 35.5 µM [inhibitor, single point] | – |
| CCc1nn(Cc2ccc(Cl)cc2)c(=O)c2cc3cc(C)ccc3n12 | inconclusive: 0.631 µM [inhibitor, full curve, poor fit] | – |
| O=S(=O)(c1ccccc1)N(CC(O)COc1ccccc1)c1ccccc1 (stereo unspecified) | inconclusive: 8.91 µM [inhibitor, partial curve] | – |
| COC(=O)CNC(c1ccccc1)c1cc(C)ccc1NS(=O)(=O)c1ccc(C)cc1 (stereo unspecified) | inconclusive: 1.3 µM [inhibitor, full curve] | – |
| CCOC(=O)Nc1ccc2c(c1)N(C(=O)N1CCN(C)CC1)c1ccccc1S2 | inconclusive: 5.17 µM [inhibitor, partial curve] | – |
| c1ccc2c(Nc3ccc(N4CCOCC4)cc3)nc(N3CCOCC3)nc2c1 | inconclusive: 10 µM [inhibitor, partial curve, poor fit] | – |
| N#CCNC(=O)c1nn2c(C(F)(F)F)cc(-c3ccccc3)nc2c1Br | inconclusive: 10 µM [inhibitor, partial curve, poor fit] | – |
| CCN(CC)c1ccc2cc(C(N)=O)/c(=N\NC(=O)c3ccncc3)oc2c1 | inconclusive: 16.4 µM [inhibitor, single point] | – |
| N#CCCn1cc(/C=N/NC(N)=S)c(-c2ccccc2)n1 | inconclusive: 35.5 µM [inhibitor, single point] | – |
| COc1ccc(C(=O)Nc2ccc(S(=O)(=O)N3CCc4ccccc43)cc2)cc1 | inconclusive: 3.55 µM [inhibitor, partial curve, poor fit] | – |
| COc1ccc(C(=O)N(CC(=O)Nc2sc(C)c(C)c2C(N)=O)C2CCCC2)cc1 | inconclusive: 10 µM [inhibitor, partial curve, poor fit] | – |

| SMILES | Potency | activity change, negative = inhibition |
| --- | --- | --- |
| CC(C)(C)CC(C)(C)N=C1NS(=O)(=O)c2cc([N+](=O)[O-])ccc21 | inconclusive: 35.5 µM [inhibitor, single point] | – |
| CC1CCCC/C1=N/Nc1ccc([N+](=O)[O-])cc1[N+](=O)[O-] (stereo unspecified) | – | inactive: 3.75% |
| Cc1cccc(C)c1NC(=S)N(CCc1ccncc1)C(C)C | – | inactive: 19.9% [at 46.1 µM] |
| Cc1ccc(NC(=O)c2sc3nc4c(cc3c2N)CN(Cc2ccccc2)CC4)cc1 | inconclusive: 10 µM [activator, partial curve, poor fit] | – |
| O=C(Nc1ccccn1)C1CCN(S(=O)(=O)c2ccccc2)CC1 | inconclusive: 35.5 µM [inhibitor, single point] | – |
| Cc1ccn2cc(-c3cccc(S(=O)(=O)N4CCCCC4)c3)nc2c1 | inconclusive: 35.5 µM [inhibitor, single point] | – |
| COc1ccc(C2Nc3ccccc3C(=O)N2c2ccc(C)cc2)cc1Cn1cc([N+](=O)[O-])cn1 (stereo unspecified) | – | inactive: -25.2% |
| Nc1ccc(Nc2nc(-c3cccs3)cs2)cc1 | – | inactive: 18.9% [at 46.1 µM] |
| O=[N+]([O-])c1cccc2c(S(=O)(=O)N3CCOCC3)cccc12 | inconclusive: 11.2 µM [inhibitor, partial curve, poor fit] | – |
| O=C(COC(=O)CNC(=O)C1CCCCC1)Nc1ccc(Br)cc1Br | – | inactive: 0.522% |
| Cc1ccc(-n2c(SCc3ccc([N+](=O)[O-])cc3)nc3ccccc3c2=O)cc1 | inconclusive: 29.1 µM [inhibitor, single point] | – |
| CCOC(=O)c1ccc(Oc2c(C)oc3c(CN4CCN(C)CC4)c(O)ccc3c2=O)cc1 | inconclusive: 35.5 µM [inhibitor, single point] | – |
| CC(Sc1nnnn1-c1ccccc1)C(=O)NC1CCCC1 (stereo unspecified) | – | inactive: 4.03% |
| CCOC(=O)c1[nH]c2ccc(OC)cc2c1NS(=O)(=O)c1ccc(OC)cc1OC | inconclusive: 7.3 µM [inhibitor, partial curve, poor fit] | – |
| CCC(C)N1C(=O)/C(=C\c2cnc(N(C)C)nc2)C(=O)NC1=S (stereo unspecified) | inconclusive: 20 µM [inhibitor, partial curve, poor fit] | – |
| Cn1c(CN2CCOCC2)nnc1SCC(=O)Nc1cccc(C(F)(F)F)c1 | inconclusive: 11.2 µM [inhibitor, partial curve, poor fit] | – |
| COc1cc2[nH]c(=O)c(C(=O)NCCCN3CCCCC3)c(O)c2cc1OC | inconclusive: 28.2 µM [inhibitor, single point] | – |
| Cc1nnc(SCc2ccc(F)cc2)s1 | – | inactive: 3.54% |
| CCOC(=O)c1c(-c2ccc(C)cc2)csc1NC(=O)C1CCCO1 (stereo unspecified) | inconclusive: 17.8 µM [inhibitor, single point] | – |
| O=C(Nc1ccccc1Cl)c1ccc2nccnc2c1 | inconclusive: 1.58 µM [activator, partial curve, poor fit] | – |

Nothing new here: entries from further up.

| SMILES | Potency | activity change, negative = inhibition |
| --- | --- | --- |
| O=C(Nc1ccccn1)C1CCN(S(=O)(=O)c2ccccc2)CC1 | inconclusive: 35.5 µM [inhibitor, single point] | – |
| Cc1ccn2cc(-c3cccc(S(=O)(=O)N4CCCCC4)c3)nc2c1 | inconclusive: 35.5 µM [inhibitor, single point] | – |

From PubChem BioAssay AID540276 (National Center for Advancing Translational Sciences (NCATS), 2011)
